Drawing on paper PMC8339588, this text covers binding for 1 substance.

No constants are given. Whether binding was seen depends on the method and setting. In cells and extracts the contact can be indirect. Where a sequence is shown, tags or fusion partners need not be part of it.

The experiment addresses T1, TBC1D16 (pCMV-Flag-TBC1D16) (UniProt Q8TBP0).
T1 sequence: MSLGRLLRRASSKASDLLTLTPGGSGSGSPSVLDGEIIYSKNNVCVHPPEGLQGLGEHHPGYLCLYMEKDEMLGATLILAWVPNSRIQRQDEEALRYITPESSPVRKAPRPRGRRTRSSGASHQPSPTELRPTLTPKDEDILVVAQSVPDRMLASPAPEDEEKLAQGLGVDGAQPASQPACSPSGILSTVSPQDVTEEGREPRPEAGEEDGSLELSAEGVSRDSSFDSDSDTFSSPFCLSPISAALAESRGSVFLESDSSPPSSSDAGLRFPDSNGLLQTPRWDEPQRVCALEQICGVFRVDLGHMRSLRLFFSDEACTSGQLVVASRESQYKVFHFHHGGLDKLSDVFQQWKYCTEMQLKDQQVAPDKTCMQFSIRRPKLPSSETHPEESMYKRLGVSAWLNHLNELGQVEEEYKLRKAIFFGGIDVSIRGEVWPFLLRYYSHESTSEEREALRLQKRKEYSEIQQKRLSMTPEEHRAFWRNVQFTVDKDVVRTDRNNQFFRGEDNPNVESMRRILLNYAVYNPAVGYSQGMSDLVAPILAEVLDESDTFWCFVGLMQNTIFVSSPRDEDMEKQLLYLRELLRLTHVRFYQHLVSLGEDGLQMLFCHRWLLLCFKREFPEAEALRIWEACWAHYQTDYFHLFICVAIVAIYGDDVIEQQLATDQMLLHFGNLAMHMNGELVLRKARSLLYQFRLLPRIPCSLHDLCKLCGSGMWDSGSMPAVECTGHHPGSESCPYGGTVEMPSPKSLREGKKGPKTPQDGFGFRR
The experiment is described as follows: co-IP; HEK293T cells cotransfected with the two tagged plasmids (3 ug each) for 48 h; lysed in Nonidet P-40 buffer (150 mM NaCl, 1 mM EDTA, 1% NP-40); precipitated with IgG (control) or the indicated antibodies on Protein A/G Plus-Agarose; washed three times with 500 mM NaCl lysis buffer ….

For the substance PFV Gag (pCMV-His-Gag), the binding entry is on record as “no binding”.
